No constants are given. Whether binding was seen depends on the method and setting.
Key:
[1] = target: USP54 catalytic domain, residues 21–369, wild type (human) (UniProt Q70EL1); assay: crystal structure; USP54 21-369 covalently conjugated to K63-linked diubiquitin–PA, 13 mg ml^−1; 100 mM HEPES pH 6.8, 27.2% PEG400, 200 mM CaCl2, 20 °C; four copies in the asymmetric unit; both purified
[2] = target: USP54 catalytic domain, residues 21–369, wild type (human) (UniProt Q70EL1); assay: SEC-MALS; 60 µl at 2 mg ml^−1 on Superdex 75 Increase 10/300 in 20 mM Tris pH 8.0, 100 mM NaCl; USP54 21-369 alone, conjugated to ubiquitin–PA or to K63-linked diubiquitin–PA; both purified

B1: USP54 catalytic domain, residues 21–369, wild type (enzyme, UniProt Q70EL1 21-369)
chain: PRSSTSIAPSKGLSNEPGQNSCFLNSALQVLWHLDIFRRSFRQLTTHKCMGDSCIFCALKGIFNQFQCSSEKVLPSDTLRSALAKTFQDEQRFQLGIMDDAAECFENLLMRIHFHIADETKEDICTAQHCISHQKFAMTLFEQCVCTSCGATSDPLPFIQMVHYISTTSLCNQAICMLERREKPSPSMFGELLQNASTMGDLRNCPSNCGERIRIRRVLMNAPQIITIGLVWDSDHSDLAEDVIHSLGTCLKLGDLFFRVTDDRAKQSELYLVGMICYYGKHYSTFFFQTKIRKWMYFDDAHVKEIGPKWKDVVTKCIKGHYQPLLLLYADPQGTPVSTQDLPPQAEFQ
- binding [1]: no binding
- binding [2]: no binding (tested: 2 mg ml^−1 injected)
